Assay results reported in article PMC9021566 (Frontiers in Chemistry, 2022).

Assay: general procedure: Fmoc solid-phase peptide synthesis; Rink amide-resin (500 mg, loading capacity = 0.33 mmol/g); HCTU/DIPEA
Details: whole synthesis, hydrocarbon staple

Substance: VS5RFKS5FFRKLKKLV-NH2
- final HPLC purity (analytical RP-HPLC, Vydac C18, scale of the general procedure 500 mg resin): over 95% purity
- isolated yield (total, scale of the general procedure 500 mg resin): 65% total yield
